PubChem BioAssay AID1259424 | University of Nebraska Medical Center – 2018
Screen: 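Seek colon cancer survival genes behaving like KSR1, using a six-gene signature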 (primary screen). Cells: human HCT116 colon cancer cells. Reagent: siRNA pool against human genes, 50 nM. Measurement: 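Log2 levels of six mRNAs (branched-DNA multiplex), adjusted by two reference genes and the non-targeting median, then scored against the average KSR1 knockdown pattern as Pearson r and euclidean distance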. Scale: mean correlation with KSR1 profile: higher = expression change more like KSR1 knockdown.
This is an unselected part of about 14,000 deposited reagents. 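Higher correlation or smaller distance means closer resemblance to KSR1 loss; control wells, including KSR1 knockdowns, recur on many plates.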 Not all columns of the deposit are shown. Not given: the time to read-out.

| mean correlation with KSR1 profile | gene knocked down |
| --- | --- |
| 0.69 | IGFBP1 |
| 0.306 | PSMG3 |
| 0.525 | ST6GAL2 |
| -0.0903 | AKAP13 |
| -0.00895 | CDK11B |
| -0.334 | ZNF337 |
| -0.749 | ADAM2 |
| -0.206 | AZU1 |
| -0.192 | ALDH3B1 |
| 0.524 | ATMIN |
| 0.652 | FBXW9 |
| 0.65 | OR51B2 |
| -0.0743 | VMP1 |

2 entries from above in another layout.
mean correlation with KSR1 profile | gene knocked down
0.525 | ST6GAL2
-0.0903 | AKAP13

The results go on.
| mean correlation with KSR1 profile | gene knocked down |
| --- | --- |
| -0.31 | H3C4 |
| 0.58 | FGF14 |
| -0.387 | PIGV |
| 0.286 | FAHD1 |
| 0.197 | RCC2 |
| 0.149 | ATP7B |
| -0.973 | SLC38A7 |
